# PubChem BioAssay AID686938 – Drosophila RNAi Screening Center | 2013
# Aim: 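Fly genes required for calcium entry once internal stores are emptied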 (primary screen)
# System: Drosophila S2R+ cells
# Reagent: long dsRNA against Drosophila genes, about 0.25 µg dsRNA per well, roughly 10,000 cells
# Duration: 5 days of knock-down before the calcium assay
# Conditions: thapsigargin (SERCA pump blocker) to empty calcium stores; entry signal taken 4 min after adding it
# Detection: 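Duplicate raw fluo-4 intensities per well from a plate reader, at rest and four minutes after thapsigargin emptied calcium stores; entry-to-rest ratio filled for only some wells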
# Direction: calcium entry signal: higher = stronger calcium signal after store depletion; entry to resting ratio: higher = more calcium entry relative to resting level; resting calcium signal: higher = higher resting calcium signal
# Hit rule: 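Hit if the duplicate-averaged plate z-score for entry over resting signal is under −3; wells with weak total dye signal (Fmax z < −2) or more than 5 off-targets removed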
# Calls: active = strongly reduced calcium entry; inactive = no strong reduction
# In all, the deposit lists about 23,000 reagents; shown is an unselected part of those with a known target gene and a result. In the full data, 75 (0.33%) got an active call. 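Raw plate signals without normalisation; calls rest on plate z-scores that were not deposited; ratio present for only 364 wells.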 Names joined by + are all predicted targets of the reagent. The record does not give: the dose of the treatment.
predicted target,PubChem SID,"calcium entry signal, replicate 1 (fluorescence units)","calcium entry signal, replicate 2 (fluorescence units)",entry to resting ratio,"resting calcium signal, replicate 1 (fluorescence units)","resting calcium signal, replicate 2 (fluorescence units)",Call
Ccdc85 (GeneID 33509),SID104180293,1.34e7,1.90e7,,8.85e6,1.18e7,inactive
Ccdc85 (GeneID 33509),SID104202530,5.73e7,2.62e7,,2.76e7,1.21e7,inactive
Rh6 (GeneID 41889),SID104196615,2.36e7,2.53e7,,1.20e7,3.31e7,inactive
Gr9a (GeneID 318158),SID104201956,3.97e7,3.08e7,,2.21e7,1.56e7,inactive
CG9915 (GeneID 32593),SID104200009,3.65e7,2.15e7,,1.85e7,1.09e7,inactive
CG9915 (GeneID 32593),SID104201278,3.62e7,4.10e7,,2.02e7,1.89e7,inactive
CG43190 (GeneID 12798407),SID104185108,3.91e7,2.66e7,,1.91e7,1.09e7,inactive
CG1172 + Or83a,SID104192149,3.20e7,3.14e7,,1.47e7,1.34e7,inactive
CG10984 (GeneID 39446),SID104189609,5.57e7,4.36e7,,3.43e7,1.82e7,inactive
yuri (GeneID 34894),SID104181245,1.84e7,2.21e7,,1.20e7,1.04e7,inactive
yuri (GeneID 34894),SID104181246,2.17e7,3.01e7,,1.21e7,1.40e7,inactive
yuri (GeneID 34894),SID104181735,3.96e7,2.61e7,,1.77e7,1.33e7,inactive
yuri (GeneID 34894),SID104181764,4.48e7,,,2.18e7,,inactive
Dlg5 (GeneID 34573),SID104182756,4.30e7,,,1.91e7,,inactive
Idh3b (GeneID 42586),SID104195832,5.13e7,3.09e7,,2.36e7,1.44e7,inactive
Pex14 (GeneID 40294),SID104191546,2.88e7,4.29e7,,1.37e7,1.85e7,inactive
mgl (GeneID 8674055),SID104197592,3.49e7,4.41e7,,1.73e7,2.25e7,inactive
mgl (GeneID 8674055),SID104197615,3.76e7,3.64e7,,1.75e7,1.76e7,inactive
mgl (GeneID 8674055),SID104197651,3.90e7,5.07e7,,1.93e7,2.41e7,inactive
mgl (GeneID 8674055),SID104197796,4.37e7,5.69e7,,1.98e7,2.65e7,inactive
ds (GeneID 33245),SID104180607,2.68e7,3.09e7,,1.32e7,1.34e7,inactive
agt (GeneID 40816),SID104192403,4.69e7,2.96e7,,2.23e7,1.41e7,inactive
CG7573 (GeneID 39272),SID104190676,2.84e7,4.92e7,,1.50e7,2.18e7,inactive
TH1 (GeneID 32607),SID104200081,4.05e7,3.81e7,,1.74e7,1.92e7,inactive
kappaB-Ras + CG30503,SID104186411,4.82e7,4.33e7,,2.19e7,1.90e7,inactive
kappaB-Ras + CG30503,SID104187428,4.51e7,4.29e7,,2.19e7,1.99e7,inactive
CG10936 (GeneID 37000),SID104185461,3.74e7,5.25e7,,1.86e7,2.45e7,inactive
CG10936 (GeneID 37000),SID104185462,3.92e7,5.00e7,,1.72e7,2.70e7,inactive
CG10936 (GeneID 37000),SID104185810,4.77e7,4.92e7,,2.28e7,2.35e7,inactive
in (GeneID 40246),SID104191680,2.69e7,4.68e7,,1.31e7,1.81e7,inactive
colt (GeneID 33470),SID104180600,4.16e7,,,2.26e7,,inactive
ND-ACP (GeneID 38154),SID104188516,3.31e7,4.00e7,,1.44e7,1.57e7,inactive
CG15880 (GeneID 33257),SID104180266,3.30e7,3.95e7,,1.58e7,1.85e7,inactive
CG15025 (GeneID 42328),SID104194823,4.52e7,4.42e7,,6.34e7,2.26e7,inactive
Gcat (GeneID 39333),SID104189511,2.50e7,3.13e7,,1.26e7,1.32e7,inactive
ric8b + ric8a,SID104197896,3.81e7,5.12e7,,1.85e7,2.48e7,inactive
Jarid2 (GeneID 39103),SID104190164,4.57e7,4.29e7,,3.21e7,1.87e7,inactive
Rrp40 (GeneID 319033),SID104179866,3.32e7,3.50e7,,1.93e7,1.75e7,inactive
CG7290 (GeneID 40211),SID104190592,2.01e7,3.36e7,,1.08e7,1.50e7,inactive
kibra (GeneID 41783),SID104194325,3.00e7,4.36e7,,1.49e7,5.18e7,inactive
kibra (GeneID 41783),SID104196049,1.76e7,2.62e7,,1.08e7,5.91e7,inactive
kibra (GeneID 41783),SID104202640,3.86e7,4.50e7,,2.06e7,2.07e7,inactive
step (GeneID 35425),SID104183486,2.99e7,3.59e7,,1.42e7,1.65e7,inactive
step (GeneID 35425),SID104183491,5.25e7,3.58e7,,2.58e7,1.52e7,inactive
CG14075 (GeneID 40071),SID104189872,1.78e7,3.81e7,,9.59e6,1.70e7,inactive
CG7675 (GeneID 42211),SID104196072,4.85e7,4.14e7,,2.16e7,1.90e7,inactive
gammaTub37C (GeneID 35199),SID104183327,4.53e7,,,2.40e7,,inactive
CG7080 (GeneID 42609),SID104195985,2.93e7,3.27e7,,1.37e7,1.49e7,inactive
CG1074 (GeneID 40564),SID104191935,4.05e7,3.53e7,,1.82e7,1.67e7,inactive
CG14565 (GeneID 40423),SID104191518,3.19e7,5.06e7,,1.54e7,2.32e7,inactive
CG3760 (GeneID 37987),SID104184207,5.42e7,2.78e7,,2.48e7,1.43e7,inactive
CG14370 (GeneID 41659),SID104194624,3.29e7,4.65e7,,1.64e7,7.45e7,inactive
vvl (GeneID 38752),SID104191201,3.95e7,5.18e7,,1.85e7,2.36e7,inactive
Pex11ab (GeneID 36758),SID104186937,3.97e7,5.51e7,,1.67e7,2.46e7,inactive
Lamtor5 (GeneID 31137),SID104198283,3.37e7,5.09e7,1.8,1.83e7,2.10e7,inactive
Syp (GeneID 42460),SID104193236,3.48e7,2.80e7,,1.80e7,1.31e7,inactive
Syp (GeneID 42460),SID104195078,4.08e7,2.94e7,,1.88e7,1.44e7,inactive
Obp99d (GeneID 43496),SID104194838,4.10e7,5.11e7,,2.08e7,2.17e7,inactive
CG31709 (GeneID 261620),SID104180873,3.04e7,4.11e7,,1.48e7,1.70e7,inactive
CSN1a (GeneID 34857),SID104181743,2.93e7,2.28e7,,1.45e7,1.14e7,inactive
CG6472 (GeneID 36895),SID104186781,3.62e7,5.22e7,,1.59e7,2.32e7,inactive
CG42232 (GeneID 7354465),SID104194810,2.88e7,2.85e7,,1.37e7,1.17e7,inactive
CG42232 (GeneID 7354465),SID104194811,3.02e7,2.97e7,,1.40e7,1.31e7,inactive
Atg13 (GeneID 40998),SID104196020,4.91e7,3.61e7,,2.18e7,1.87e7,inactive
CG10839 (GeneID 34944),SID104181757,4.06e7,3.95e7,,1.80e7,1.84e7,inactive
Pfas (GeneID 33847),SID104183272,4.52e7,,,2.42e7,,inactive
CG14881 (GeneID 41990),SID104194797,3.98e7,4.58e7,,1.87e7,7.51e7,inactive
imd (GeneID 44339),SID104185720,3.97e7,3.43e7,,1.83e7,1.57e7,inactive
CG17562 (GeneID 42021),SID104195035,2.34e7,2.23e7,,1.21e7,3.70e7,inactive
CG17475 (GeneID 42069),SID104195030,4.12e7,4.26e7,,1.90e7,6.12e7,inactive
CG9300 (GeneID 40128),SID104190856,2.24e7,2.09e7,,1.80e7,1.13e7,inactive
CG10175 (GeneID 42773),SID104193420,3.45e7,4.09e7,,1.55e7,1.92e7,inactive
CG10175 (GeneID 42773),SID104193992,2.83e7,4.82e7,,1.63e7,1.78e7,inactive
CG10175 (GeneID 42773),SID104201586,2.00e7,4.58e7,,9.42e6,2.26e7,inactive
Tango14 (GeneID 33298),SID104180459,3.62e7,3.45e7,,1.73e7,1.57e7,inactive

Just “calcium entry signal, replicate 2 (fluorescence units)”, for 6 of the entries above:
ND-ACP (GeneID 38154) [SID104188516]: 4.00e7
CG15880 (GeneID 33257) [SID104180266]: 3.95e7
CG15025 (GeneID 42328) [SID104194823]: 4.42e7
Gcat (GeneID 39333) [SID104189511]: 3.13e7
ric8b + ric8a [SID104197896]: 5.12e7
Jarid2 (GeneID 39103) [SID104190164]: 4.29e7
